Assay results published in the supplement of paper PMC10849652.
Some of the results follow.

Protein sequences, listed by entry. Tags and fused reporters are not part of them. Lines headed by an entry give the natural chain unless they say otherwise; changes in a name come on top.
UniProt A8MXV4: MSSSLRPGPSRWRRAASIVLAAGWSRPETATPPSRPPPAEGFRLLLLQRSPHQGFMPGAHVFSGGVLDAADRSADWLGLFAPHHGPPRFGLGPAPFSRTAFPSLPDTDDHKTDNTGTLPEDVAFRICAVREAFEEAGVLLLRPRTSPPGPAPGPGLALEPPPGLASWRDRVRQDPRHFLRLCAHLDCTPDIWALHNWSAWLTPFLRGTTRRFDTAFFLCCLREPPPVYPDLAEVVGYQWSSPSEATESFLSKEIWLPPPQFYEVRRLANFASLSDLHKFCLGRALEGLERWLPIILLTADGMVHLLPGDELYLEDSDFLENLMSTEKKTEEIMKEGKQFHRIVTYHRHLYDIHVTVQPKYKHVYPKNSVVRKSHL
UniProt Q9NTK5, whole entry, looked up: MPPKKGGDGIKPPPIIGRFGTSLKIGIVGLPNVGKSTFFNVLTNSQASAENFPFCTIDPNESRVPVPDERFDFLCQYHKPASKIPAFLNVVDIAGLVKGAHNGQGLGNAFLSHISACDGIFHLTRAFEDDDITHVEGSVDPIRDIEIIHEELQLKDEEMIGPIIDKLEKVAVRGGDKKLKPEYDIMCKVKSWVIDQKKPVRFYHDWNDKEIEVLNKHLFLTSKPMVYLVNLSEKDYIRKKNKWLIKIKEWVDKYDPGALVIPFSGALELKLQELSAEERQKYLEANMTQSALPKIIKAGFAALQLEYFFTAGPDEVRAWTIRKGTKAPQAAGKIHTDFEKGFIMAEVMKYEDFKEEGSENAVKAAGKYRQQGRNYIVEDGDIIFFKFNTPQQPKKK
UniProt Q8WZ82: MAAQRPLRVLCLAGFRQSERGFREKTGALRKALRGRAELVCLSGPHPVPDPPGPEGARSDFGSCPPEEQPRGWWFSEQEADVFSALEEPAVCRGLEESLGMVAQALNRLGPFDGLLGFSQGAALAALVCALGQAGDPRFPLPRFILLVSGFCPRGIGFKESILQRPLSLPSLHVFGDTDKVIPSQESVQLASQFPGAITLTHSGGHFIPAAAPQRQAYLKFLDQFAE
UniProt O15381: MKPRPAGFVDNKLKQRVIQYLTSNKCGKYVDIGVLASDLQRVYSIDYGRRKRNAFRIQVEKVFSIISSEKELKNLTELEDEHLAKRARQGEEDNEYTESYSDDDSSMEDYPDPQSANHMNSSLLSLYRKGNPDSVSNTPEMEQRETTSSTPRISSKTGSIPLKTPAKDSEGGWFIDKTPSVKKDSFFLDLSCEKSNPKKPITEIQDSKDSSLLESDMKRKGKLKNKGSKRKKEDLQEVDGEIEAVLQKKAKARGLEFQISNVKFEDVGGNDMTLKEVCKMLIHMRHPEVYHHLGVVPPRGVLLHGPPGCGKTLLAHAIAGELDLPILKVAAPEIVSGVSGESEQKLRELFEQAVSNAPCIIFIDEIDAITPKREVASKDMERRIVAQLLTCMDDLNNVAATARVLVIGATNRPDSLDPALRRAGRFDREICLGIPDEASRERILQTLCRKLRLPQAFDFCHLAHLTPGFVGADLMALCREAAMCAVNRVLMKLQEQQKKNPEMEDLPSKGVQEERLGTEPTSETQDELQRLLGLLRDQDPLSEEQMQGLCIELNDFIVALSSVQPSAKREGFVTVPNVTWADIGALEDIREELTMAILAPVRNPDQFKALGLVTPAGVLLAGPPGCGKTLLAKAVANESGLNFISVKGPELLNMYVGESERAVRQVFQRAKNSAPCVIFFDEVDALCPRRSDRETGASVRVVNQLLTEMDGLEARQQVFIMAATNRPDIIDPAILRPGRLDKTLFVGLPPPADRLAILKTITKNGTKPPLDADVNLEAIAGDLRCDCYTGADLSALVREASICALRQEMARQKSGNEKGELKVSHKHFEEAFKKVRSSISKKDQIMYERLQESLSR
UniProt Q6N063: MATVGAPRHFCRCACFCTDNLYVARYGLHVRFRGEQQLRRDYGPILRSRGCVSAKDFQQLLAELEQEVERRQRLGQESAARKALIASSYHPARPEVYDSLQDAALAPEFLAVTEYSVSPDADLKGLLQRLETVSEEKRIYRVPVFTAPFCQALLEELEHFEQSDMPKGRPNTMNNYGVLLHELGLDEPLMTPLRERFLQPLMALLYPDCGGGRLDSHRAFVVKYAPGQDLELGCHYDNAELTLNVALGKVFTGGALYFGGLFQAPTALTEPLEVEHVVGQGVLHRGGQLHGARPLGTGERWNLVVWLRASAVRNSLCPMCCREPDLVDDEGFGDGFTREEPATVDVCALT
UniProt O60890: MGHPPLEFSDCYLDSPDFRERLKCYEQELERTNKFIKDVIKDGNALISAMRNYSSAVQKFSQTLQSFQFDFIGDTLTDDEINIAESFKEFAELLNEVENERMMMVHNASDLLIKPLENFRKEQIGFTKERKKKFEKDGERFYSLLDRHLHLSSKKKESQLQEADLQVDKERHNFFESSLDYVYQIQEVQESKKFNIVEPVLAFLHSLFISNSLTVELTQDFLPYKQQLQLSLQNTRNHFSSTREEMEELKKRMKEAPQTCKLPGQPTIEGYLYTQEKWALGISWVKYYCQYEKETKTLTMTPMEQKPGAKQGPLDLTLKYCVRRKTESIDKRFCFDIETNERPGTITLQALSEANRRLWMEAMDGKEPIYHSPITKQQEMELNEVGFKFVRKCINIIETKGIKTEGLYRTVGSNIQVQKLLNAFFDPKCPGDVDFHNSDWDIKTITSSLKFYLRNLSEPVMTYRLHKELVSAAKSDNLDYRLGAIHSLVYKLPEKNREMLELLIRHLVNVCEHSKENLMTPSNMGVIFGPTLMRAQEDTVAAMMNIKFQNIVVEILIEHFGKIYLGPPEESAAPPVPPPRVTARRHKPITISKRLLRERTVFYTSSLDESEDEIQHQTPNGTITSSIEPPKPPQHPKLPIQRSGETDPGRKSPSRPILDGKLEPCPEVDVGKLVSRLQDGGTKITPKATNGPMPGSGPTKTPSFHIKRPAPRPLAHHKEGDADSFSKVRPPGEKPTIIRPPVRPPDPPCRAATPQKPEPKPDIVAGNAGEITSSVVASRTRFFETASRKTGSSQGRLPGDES
UniProt Q969T7: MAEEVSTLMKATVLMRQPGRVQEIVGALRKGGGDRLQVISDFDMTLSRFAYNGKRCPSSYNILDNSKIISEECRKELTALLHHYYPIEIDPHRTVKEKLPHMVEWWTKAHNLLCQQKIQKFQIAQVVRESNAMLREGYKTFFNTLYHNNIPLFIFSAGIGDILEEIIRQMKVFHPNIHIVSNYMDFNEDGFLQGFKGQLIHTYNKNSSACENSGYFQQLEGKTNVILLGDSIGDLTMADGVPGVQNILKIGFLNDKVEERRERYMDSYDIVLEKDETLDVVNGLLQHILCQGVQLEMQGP
UniProt Q9Y530: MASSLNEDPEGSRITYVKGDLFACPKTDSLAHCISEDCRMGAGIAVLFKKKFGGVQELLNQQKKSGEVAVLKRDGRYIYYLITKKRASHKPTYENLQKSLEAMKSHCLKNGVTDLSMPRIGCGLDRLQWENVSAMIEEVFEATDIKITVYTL
UniProt O15504: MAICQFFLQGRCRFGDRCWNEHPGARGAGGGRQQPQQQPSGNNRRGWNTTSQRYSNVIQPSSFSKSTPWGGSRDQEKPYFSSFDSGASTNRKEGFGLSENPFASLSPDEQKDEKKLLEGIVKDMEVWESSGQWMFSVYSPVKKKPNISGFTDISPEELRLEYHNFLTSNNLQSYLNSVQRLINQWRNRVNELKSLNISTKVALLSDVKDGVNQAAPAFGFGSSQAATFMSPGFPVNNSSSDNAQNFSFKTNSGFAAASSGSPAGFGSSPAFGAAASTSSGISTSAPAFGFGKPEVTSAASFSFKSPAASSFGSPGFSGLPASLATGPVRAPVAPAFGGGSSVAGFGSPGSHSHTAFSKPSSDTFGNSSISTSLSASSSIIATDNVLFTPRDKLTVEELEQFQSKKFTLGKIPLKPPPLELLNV
UniProt P22059, whole entry, looked up: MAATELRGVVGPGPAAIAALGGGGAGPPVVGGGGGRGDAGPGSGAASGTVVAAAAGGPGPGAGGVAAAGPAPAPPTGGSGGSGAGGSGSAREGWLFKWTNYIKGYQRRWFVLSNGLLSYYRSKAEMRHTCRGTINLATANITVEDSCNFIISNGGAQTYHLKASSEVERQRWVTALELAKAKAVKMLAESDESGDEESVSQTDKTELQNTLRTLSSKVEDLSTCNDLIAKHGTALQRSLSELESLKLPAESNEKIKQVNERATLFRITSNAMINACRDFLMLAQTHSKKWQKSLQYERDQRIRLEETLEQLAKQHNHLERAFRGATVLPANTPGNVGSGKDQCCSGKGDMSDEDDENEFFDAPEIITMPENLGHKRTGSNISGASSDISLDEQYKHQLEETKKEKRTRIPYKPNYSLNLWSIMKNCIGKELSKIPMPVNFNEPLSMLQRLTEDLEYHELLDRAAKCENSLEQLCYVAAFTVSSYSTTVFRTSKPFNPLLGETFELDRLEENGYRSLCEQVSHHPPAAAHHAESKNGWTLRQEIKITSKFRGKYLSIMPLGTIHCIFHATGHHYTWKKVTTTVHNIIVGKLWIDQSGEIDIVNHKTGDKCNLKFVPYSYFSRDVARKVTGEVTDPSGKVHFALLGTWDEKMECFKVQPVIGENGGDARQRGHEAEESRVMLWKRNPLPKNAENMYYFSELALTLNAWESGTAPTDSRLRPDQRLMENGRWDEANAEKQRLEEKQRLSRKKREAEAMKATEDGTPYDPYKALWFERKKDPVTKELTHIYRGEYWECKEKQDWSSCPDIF
UniProt Q9NX40: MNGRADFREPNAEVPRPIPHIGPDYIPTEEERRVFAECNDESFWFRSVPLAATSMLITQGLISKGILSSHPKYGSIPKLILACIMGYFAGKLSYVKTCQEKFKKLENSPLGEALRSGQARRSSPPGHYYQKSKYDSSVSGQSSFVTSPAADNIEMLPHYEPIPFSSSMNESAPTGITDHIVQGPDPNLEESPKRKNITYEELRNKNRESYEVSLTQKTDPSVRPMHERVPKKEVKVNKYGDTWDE
UniProt Q9BXS6: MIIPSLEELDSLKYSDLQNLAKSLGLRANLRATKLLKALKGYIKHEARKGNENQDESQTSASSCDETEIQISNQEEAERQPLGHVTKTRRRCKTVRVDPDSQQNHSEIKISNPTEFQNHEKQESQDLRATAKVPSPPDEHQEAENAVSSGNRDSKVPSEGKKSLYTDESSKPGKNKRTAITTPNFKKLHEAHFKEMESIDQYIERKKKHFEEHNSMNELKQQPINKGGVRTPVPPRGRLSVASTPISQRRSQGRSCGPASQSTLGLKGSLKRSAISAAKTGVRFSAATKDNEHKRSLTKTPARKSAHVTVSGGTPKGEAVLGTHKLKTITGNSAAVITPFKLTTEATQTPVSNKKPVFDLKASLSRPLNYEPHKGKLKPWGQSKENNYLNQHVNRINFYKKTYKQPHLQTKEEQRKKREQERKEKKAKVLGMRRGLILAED

What was measured:
Assay in all cases: log2 fold change, soluble protein after heating vs DMSO (PISA); higher = thermal stabilisation; K562 cells, 10 uM, 30 min; active = over 0.2 and 3.5 SD of the protein, either way, in both replicates (recomputed)
bafetinib = compound: Cc1ccc(NC(=O)c2ccc(CN3CC[C@H](N(C)C)C3)c(C(F)(F)F)c2)cc1Nc1nccc(-c2cncnc2)n1 [bafetinib]
In short: (§1)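 Aliquots of K562 cells (2×10^6 cells/mL) treated with 10 μM compound for 30 min were heated for 3 min over 48°C-58°C. After pooling and extraction in PBS with 0.5% NP-40 at 4°C, soluble protein from a 21,000xg, 90 min spin was quantified by TMTpro 16plex LC-MS/MS with channel sums equalised. Thermal stability is expressed against control samples, from duplicates, as a log2 fold change.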

[1] = compound: Cc1cccc(CC(=O)N2CCc3c2ccc(-c2cn(C)c4ncnc(N)c24)c3F)n1
In short: as §1

nilotinib = compound: Cc1cn(-c2cc(NC(=O)c3ccc(C)c(Nc4nccc(-c5cccnc5)n4)c3)cc(C(F)(F)F)c2)cn1 [nilotinib]
In short: as §1

[2] = compound: Cc1nc(Nc2n[nH]c3c2CN(C(=O)N[C@H](CN(C)C)c2ccccc2)C3(C)C)c2sccc2n1
In short: as §1

dasatinib = compound: Cc1nc(Nc2ncc(C(=O)Nc3c(C)cccc3Cl)s2)cc(N2CCN(CCO)CC2)n1 [dasatinib]
In short: as §1

[3] = compound: Cc1ncc(-c2ccnc(Nc3ccc(S(C)(=O)=O)cc3)n2)n1C(C)C
In short: as §1

[4] = compound: Cn1cc(-c2ccc3c(c2)CCN3C(=O)Cc2cccc(C(F)(F)F)c2)c2c(N)ncnc21
In short: as §1

[5] = compound: Cn1cc(-c2ccc3nnc(C(F)(F)c4ccc5ncccc5c4)n3n2)cn1
In short: as §1

tipifarnib = compound: Cn1cncc1[C@@](N)(c1ccc(Cl)cc1)c1ccc2c(c1)c(-c1cccc(Cl)c1)cc(=O)n2C [tipifarnib]
In short: as §1

mubritinib = compound: FC(F)(F)c1ccc(/C=C/c2nc(COc3ccc(CCCCn4ccnn4)cc3)co2)cc1 [mubritinib]
In short: as §1

[6] = compound: NC(=O)Nc1cc(-c2cccc(F)c2)sc1C(=O)N[C@H]1CCCNC1
In short: as §1

[7] = compound: NC(=O)c1cnc(N[C@@H]2CCCC[C@@H]2N)nc1Nc1cccc(-n2nccn2)c1
In short: as §1

[8] = compound: NC1(c2ccc(-c3nc4ccn5c(=O)[nH]nc5c4cc3-c3ccccc3)cc2)CCC1
In short: as §1

[9] = compound: NCC(=O)Nc1ccc(-n2nc(C(F)(F)F)cc2-c2ccc3c(ccc4ccccc43)c2)cc1
In short: as §1

entinostat = compound: Nc1ccccc1NC(=O)c1ccc(CNC(=O)OCc2cccnc2)cc1 [entinostat]
In short: as §1

vorinostat = compound: O=C(CCCCCCC(=O)Nc1ccccc1)NO [vorinostat]
In short: as §1

citarinostat = compound: O=C(CCCCCCNC(=O)c1cnc(N(c2ccccc2)c2ccccc2Cl)nc1)NO [citarinostat]
In short: as §1

silmitasertib = compound: O=C(O)c1ccc2c(c1)nc(Nc1cccc(Cl)c1)c1ccncc12 [silmitasertib]
In short: as §1

[10] = compound: O=C1NC(=O)C(c2cnc3ccccn23)=C1c1cn2c3c(cc(F)cc13)CN(C(=O)N1CCCCC1)CC2
In short: as §1

[11] = compound: c1cc(OCCN2CCCCC2)cc(-c2n[nH]c3ccc(-c4nnc[nH]4)cc23)c1
In short: as §1

Target	log2 fold change (bafetinib)	log2 fold change [1]	log2 fold change (nilotinib)	log2 fold change [2]	log2 fold change (dasatinib)	log2 fold change [3]	log2 fold change [4]	log2 fold change [5]	log2 fold change (tipifarnib)	log2 fold change (mubritinib)	log2 fold change [6]	log2 fold change [7]	log2 fold change [8]	log2 fold change [9]	log2 fold change (entinostat)	log2 fold change (vorinostat)	log2 fold change (citarinostat)	log2 fold change (silmitasertib)	log2 fold change [10]	log2 fold change [11]
NUDT19 (UniProt A8MXV4)	inactive: -0.066	inactive: -0.013	inactive: 0.024	inactive: 0.01	inactive: -0.029	inactive: -0.011	inactive: 0.003	inactive: -0.041	inactive: -0.116	inactive: 0.049	inactive: -0.041	inactive: -0.018	inactive: -0.019	inactive: -0.015	inactive: -0.016	inactive: -0.015	inactive: 0.063	inactive: -0.016	inactive: -0.069	inactive: -0.01
OLA1 (UniProt Q9NTK5)	inactive: -0.053	inactive: 0.021	inactive: -0.013	inactive: -0.01	inactive: -0.029	inactive: -0.001	inactive: 0.02	inactive: -0.011	inactive: -0.042	inactive: 0.015	inactive: 0.003	inactive: 0.002	inactive: -0.055	inactive: -0.049	inactive: 0.001	inactive: 0.018	inactive: 0.084	inactive: -0.026	inactive: -0.03	inactive: -0.016
OVCA2 (UniProt Q8WZ82)	inactive: 0.171	inactive: 0.039	inactive: 0.026	inactive: -0.326		inactive: -0.163		inactive: -0.003	inactive: -0.059	inactive: -0.231		inactive: -0.067	inactive: 0.03			inactive: 0.08	inactive: -0.085	inactive: 0.206		inactive: 0.08
NVL (UniProt O15381)	inactive: -0.151	inactive: -0.047						inactive: 0.022		inactive: 0.061			inactive: 0.031			inactive: -0.001		inactive: -0.045		
OGFOD2 (UniProt Q6N063)	inactive: 0.009	inactive: 0.171	inactive: 0.004	inactive: -0.007	inactive: -0.04	inactive: -0.023	inactive: -0.011	inactive: 0.132		inactive: 0.092		inactive: 0.005	inactive: -0.151	inactive: -0.012		inactive: -0.313	inactive: 0.036	inactive: 0.097	inactive: -0.073	inactive: -0.012
OPHN1 (UniProt O60890)	inactive: -0.035	inactive: -0.134	inactive: -0.088	inactive: 0.051	inactive: -0.04	inactive: 0.093	inactive: 0.028	inactive: 0.099		inactive: 0.035	inactive: 0.073	inactive: -0.134	inactive: -0.056		inactive: -0.084	inactive: 0.128	inactive: 0.021	inactive: 0.031	inactive: -0.046	inactive: 0.094
NT5C3B (UniProt Q969T7)	inactive: -0.007	inactive: 0.01	inactive: 0.02	inactive: 0.126	inactive: -0.022	inactive: 0	inactive: 0.041	inactive: 0.208	inactive: -0.043	inactive: 0.16	inactive: -0.077	inactive: -0.038	inactive: -0.119	inactive: -0.161	inactive: 0.121	inactive: 0		inactive: 0.049		
OARD1 (UniProt Q9Y530)	inactive: 0.058		inactive: 0.004	inactive: -0.149	inactive: -0.091	inactive: 0.021	inactive: 0.018	inactive: -0.038	inactive: -0.132	inactive: 0.026	inactive: -0.056	inactive: 0.002	inactive: -0.079	inactive: -0.054	inactive: 0.066		inactive: 0.136	inactive: -0.014	inactive: -0.005	inactive: 0.021
NUP42 (UniProt O15504)	inactive: 0.191	inactive: -0.146	inactive: -0.114	inactive: -0.043	inactive: 0.148	inactive: -0.143	inactive: -0.385	inactive: -0.166	inactive: 0.198	inactive: -0.119	inactive: 0.07	inactive: -0.009	inactive: 0.009		inactive: -0.146	inactive: -0.004	inactive: -0.052	inactive: -0.035	inactive: 0.461	inactive: -0.166
OSBP (UniProt P22059)	inactive: -0.017	inactive: 0.005	inactive: 0.123	active: -0.257	inactive: -0.08	inactive: -0.067	inactive: -0.024	inactive: -0.024	inactive: -0.085	inactive: 0.012	inactive: -0.007	inactive: 0.019	inactive: -0.17	inactive: -0.036	inactive: 0.024	inactive: 0.013	inactive: 0.03	inactive: 0.014	inactive: -0.131	inactive: -0.066
OCIAD1 (UniProt Q9NX40)	inactive: -0.024	inactive: -0.091	inactive: 0.06	inactive: 0.054	inactive: 0.028	inactive: 0.002	inactive: 0.012	inactive: 0.004	inactive: 0.01	inactive: 0.026	inactive: -0.004	inactive: -0.012	inactive: -0.009	inactive: 0.041	inactive: -0.035	inactive: -0.066	inactive: 0.027	inactive: -0.029	inactive: -0.007	inactive: -0.001
NUSAP1 (UniProt Q9BXS6)	inactive: 0.129	inactive: 0.002	inactive: -0.127	inactive: 0.108	inactive: 0.15	inactive: -0.032	inactive: -0.214	inactive: -0.093	inactive: 0.162	inactive: 0.002	inactive: 0.081	inactive: -0.047	inactive: -0.067	inactive: -0.111	inactive: -0.027	inactive: 0.005	inactive: -0.022	inactive: 0.175	inactive: 0.168	inactive: -0.223

As entered above.
log2 fold change [7] with OARD1 (UniProt Q9Y530) is entered as inactive: 0.002
log2 fold change [4] with OSBP (UniProt P22059) is entered as inactive: -0.024
